Laboratory results from patent US20210261583A1, “Synthetic Cytotoxic Molecules, Drugs, Methods of Their Synthesis and Methods of Treatment” (The Regents of the University of California, priority 2018, published 2021).
At least one compound was matched to its structure with a doubt left.

How the values were obtained:
[1] = system: vacuolation; test: Vacuolation score; type: cell-based; parameters: key to the marks not given beside the values
[2] = Racemization/epimerization, deuterium incorporation and cyclization in protic solvents; type: physicochemical; details: in H2O
Procedure: In the presence of D2O at room temperature, deuterium was incorporated at C-2 confirming a fast enolization followed by β-elimination and ring closure. […] The incorporation of deuterium is complete in 30 min at pH=10, and in 3 hours at pH=7.
It was therefore decided to further investigate this new structural analog and we prepared the bicyclic enantiopure pyrrolizidine 17 bearing the aryloctyl appendage on C-3, in analogy with our lead compound 3 as well as the monocyclic variant 18, to check the effect of the substituent position and the nature of the azacycles (FIG. 7).

Compound	Vacuolation score ([1]; 2.5 μM)	Vacuolation score ([1]; 10 μM)	equilibrium ratio ketone : azabicyclic iminium salt [2]
CCCCCCCCc1ccc([C@H]2CCN[C@@H]2CO)cc1.Cl [Compound 3, reference compound]	++	+++	
CCCCCCCCc1ccc(C(=O)CC[C@H]2C[C@H](CO)CN2)cc1.Cl [Compound 13]		+++	2:1
